Literature values as cited in publication PMC8352719 (The Journal of General Physiology, 2021).

Test system: intestinal longitudinal muscle
Details: ref Giagnoni et al., 1983; Mackerer et al., 1976; cited from earlier work

For `CN(C)C(=O)C(CCN1CCC(O)(c2ccc(Cl)cc2)CC1)(c1ccccc1)c1ccccc1` [LOP, 4-[4-(4-chlorophenyl)-4-hydroxypiperidin-1-yl]-N,N-dimethyl-2,2-diphenylbutanamide], which “IC50 to inhibit contractions in intestinal longitudinal muscle” value is on record?
Its value is “nanomolar range”.
